Test results from PMC4057743, “Arabidopsis ABA Receptor RCAR1/PYL9 Interacts with an R2R3-Type MYB Transcription Factor, AtMYB44” (International Journal of Molecular Sciences, 2014).
Results are given in words; binding and its absence hold for the method and conditions named. Binding can be weak; no strength is given.

Target: T1, RCAR1/PYL9 bait (pGBKT7) (Arabidopsis) (UniProt Q84MC7)
T1 sequence: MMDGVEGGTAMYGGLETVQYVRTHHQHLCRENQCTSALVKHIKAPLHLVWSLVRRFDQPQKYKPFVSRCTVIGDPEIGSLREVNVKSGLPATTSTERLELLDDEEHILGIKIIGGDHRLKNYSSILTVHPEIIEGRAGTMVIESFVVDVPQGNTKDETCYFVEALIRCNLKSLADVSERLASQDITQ
Assay: two-hybrid; AH109 yeast; baits in pGBKT7, preys in pGADT7; growth on SD/-L-T-H-A and X-α-Gal staining, 3 days at 30 °C; with or without 10 μM ABA in the medium

- binding: binds
Substance: full-length AtMYB70 prey (pGADT7) (Arabidopsis)
